Primary screen of a compound library

The chains behind the UniProt entries cited, without tags or fusion partners. Residues count along the entry.
UniProt P9WNZ1, whole entry: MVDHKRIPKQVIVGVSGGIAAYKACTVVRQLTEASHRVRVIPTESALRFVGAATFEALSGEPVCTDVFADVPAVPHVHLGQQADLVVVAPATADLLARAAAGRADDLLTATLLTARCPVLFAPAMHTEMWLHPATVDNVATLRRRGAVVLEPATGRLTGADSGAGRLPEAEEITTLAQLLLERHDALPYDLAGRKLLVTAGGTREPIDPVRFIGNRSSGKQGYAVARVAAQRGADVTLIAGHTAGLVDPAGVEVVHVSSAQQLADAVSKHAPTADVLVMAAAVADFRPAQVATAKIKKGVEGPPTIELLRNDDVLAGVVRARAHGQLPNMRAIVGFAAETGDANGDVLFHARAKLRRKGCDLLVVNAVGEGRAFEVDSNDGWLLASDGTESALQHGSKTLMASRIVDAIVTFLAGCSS
UniProt I6X8D2, whole entry: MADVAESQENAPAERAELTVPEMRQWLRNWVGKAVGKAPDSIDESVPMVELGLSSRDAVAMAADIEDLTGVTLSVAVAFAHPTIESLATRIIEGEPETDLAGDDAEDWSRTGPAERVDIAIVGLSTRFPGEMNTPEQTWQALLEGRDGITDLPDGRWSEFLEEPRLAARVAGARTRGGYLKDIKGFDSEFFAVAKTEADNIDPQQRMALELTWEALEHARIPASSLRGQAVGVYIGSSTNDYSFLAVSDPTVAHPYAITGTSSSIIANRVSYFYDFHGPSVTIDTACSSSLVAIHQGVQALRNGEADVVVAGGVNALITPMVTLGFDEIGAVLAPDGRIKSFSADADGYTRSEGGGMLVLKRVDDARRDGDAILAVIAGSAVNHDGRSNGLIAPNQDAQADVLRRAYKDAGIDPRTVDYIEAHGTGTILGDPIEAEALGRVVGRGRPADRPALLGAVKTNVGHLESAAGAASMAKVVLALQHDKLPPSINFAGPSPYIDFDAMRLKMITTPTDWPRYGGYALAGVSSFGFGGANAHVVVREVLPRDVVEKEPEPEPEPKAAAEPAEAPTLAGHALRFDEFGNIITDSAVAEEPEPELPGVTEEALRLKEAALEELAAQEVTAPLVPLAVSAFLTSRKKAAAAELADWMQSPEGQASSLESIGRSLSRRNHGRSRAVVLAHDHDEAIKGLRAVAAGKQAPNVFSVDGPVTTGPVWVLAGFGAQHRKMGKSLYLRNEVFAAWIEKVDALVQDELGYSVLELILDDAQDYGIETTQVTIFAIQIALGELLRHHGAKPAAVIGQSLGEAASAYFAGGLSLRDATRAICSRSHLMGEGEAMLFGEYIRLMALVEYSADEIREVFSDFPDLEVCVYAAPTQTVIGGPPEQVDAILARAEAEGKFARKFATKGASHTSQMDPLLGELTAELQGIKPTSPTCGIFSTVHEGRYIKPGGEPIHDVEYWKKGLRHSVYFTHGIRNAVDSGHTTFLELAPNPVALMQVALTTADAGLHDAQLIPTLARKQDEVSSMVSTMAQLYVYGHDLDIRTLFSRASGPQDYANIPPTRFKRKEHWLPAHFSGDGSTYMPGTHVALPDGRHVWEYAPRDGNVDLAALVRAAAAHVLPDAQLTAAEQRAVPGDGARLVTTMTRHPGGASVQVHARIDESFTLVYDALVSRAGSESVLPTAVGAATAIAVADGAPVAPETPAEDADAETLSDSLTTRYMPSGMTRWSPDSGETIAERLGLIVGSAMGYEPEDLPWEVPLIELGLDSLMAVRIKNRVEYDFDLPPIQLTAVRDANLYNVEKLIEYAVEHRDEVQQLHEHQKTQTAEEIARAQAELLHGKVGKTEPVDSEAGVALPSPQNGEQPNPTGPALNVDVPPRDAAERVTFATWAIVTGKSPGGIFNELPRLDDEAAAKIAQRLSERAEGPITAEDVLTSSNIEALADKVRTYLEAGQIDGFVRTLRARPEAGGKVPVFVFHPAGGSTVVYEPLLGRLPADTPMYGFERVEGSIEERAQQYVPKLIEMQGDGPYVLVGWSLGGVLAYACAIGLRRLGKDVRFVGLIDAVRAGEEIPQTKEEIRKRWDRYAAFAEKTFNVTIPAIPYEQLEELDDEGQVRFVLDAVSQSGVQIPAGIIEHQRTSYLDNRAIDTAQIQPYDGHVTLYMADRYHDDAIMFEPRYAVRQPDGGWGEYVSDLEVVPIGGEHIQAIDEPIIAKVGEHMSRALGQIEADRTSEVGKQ
UniProt P9WFT3, whole entry: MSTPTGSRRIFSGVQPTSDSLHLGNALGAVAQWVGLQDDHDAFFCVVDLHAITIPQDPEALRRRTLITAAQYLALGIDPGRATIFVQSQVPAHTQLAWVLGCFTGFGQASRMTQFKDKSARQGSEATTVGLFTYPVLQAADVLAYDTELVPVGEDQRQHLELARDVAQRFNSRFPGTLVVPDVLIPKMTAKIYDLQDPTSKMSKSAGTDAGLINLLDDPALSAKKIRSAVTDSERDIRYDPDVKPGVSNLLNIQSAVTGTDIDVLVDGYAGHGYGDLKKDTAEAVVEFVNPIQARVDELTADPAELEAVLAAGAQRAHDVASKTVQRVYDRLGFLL
UniProt A4I591, 1-473: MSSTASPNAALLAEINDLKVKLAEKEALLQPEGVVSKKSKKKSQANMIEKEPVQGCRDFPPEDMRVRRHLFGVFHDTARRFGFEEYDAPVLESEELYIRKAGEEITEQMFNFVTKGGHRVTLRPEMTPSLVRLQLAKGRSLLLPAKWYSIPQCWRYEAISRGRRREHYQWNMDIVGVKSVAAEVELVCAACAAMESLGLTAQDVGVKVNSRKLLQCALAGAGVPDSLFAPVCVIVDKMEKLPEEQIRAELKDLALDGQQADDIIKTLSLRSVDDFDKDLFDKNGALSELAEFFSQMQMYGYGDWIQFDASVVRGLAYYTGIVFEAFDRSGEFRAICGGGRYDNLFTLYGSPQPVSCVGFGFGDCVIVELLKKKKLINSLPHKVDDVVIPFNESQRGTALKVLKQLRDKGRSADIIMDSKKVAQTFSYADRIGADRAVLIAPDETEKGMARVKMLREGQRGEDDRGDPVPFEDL

From ChEMBL document CHEMBL3988442, “University of Dundee, Small-Polar-MMV Screening Library” (2021).

Results are given as percent effect. The record does not define 0% and 100%; most values in the screen are far below 50% and negative numbers occur (in some assays of this library far below -100). The compounds are a random part of those screened. Two or more numbers in one place are separate tests of the same structure; such repeats can differ widely. A dash means the value is not listed here; it may have been measured.

CoaBC: 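Enzyme assay of CoaBC with a phosphate dye (Biomol Green) read at 650 nm. Target: Coenzyme A biosynthesis protein CoaBC, Mycobacterium tuberculosis (UniProt P9WNZ1). Concentration: 30 µM. Higher reads as stronger inhibition, judged from the few compounds that gave an IC50. Most strong results did not repeat in a second test. About 67,000 compounds were tested under these conditions; 0.06% (about 40) showed 50% or more at least once.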
Pks13 thioesterase: 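Polyketide synthase Pks13, Mycobacterium tuberculosis (UniProt I6X8D2). Enzyme assay of the thioesterase domain of polyketide synthase 13; the read-out is not stated. Tested at 30 µM. Higher reads as stronger inhibition (inferred from which compounds were picked for retests). Of about 67,000 compounds tested this way, about 300 (0.46%) reached 50% or more in at least one test.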
MtTrpRS: 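Enzyme assay of tryptophanyl-tRNA synthetase; the read-out is not stated. Target: Tryptophan-tRNA ligase, Mycobacterium tuberculosis (UniProt P9WFT3). Compounds at 10 µM. Direction is not recorded; retested compounds ran higher, which suggests that high means inhibition. Of about 65,000 compounds tested this way, about 64 (0.098%) reached 50% or more in at least one test.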
LiHisRS: 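Histidine-tRNA ligase, Leishmania infantum (UniProt A4I591). Enzyme assay of histidyl-tRNA synthetase; the read-out is not stated. Tested at 30 µM. The record gives no direction; compounds that gave an IC50 in retests scored well above the rest, so higher reads as stronger inhibition. The assay is labelled LdHisRS but filed under L. infantum. Of about 69,000 compounds tested this way, about 410 (0.6%) reached 50% or more in at least one test.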

Compound	CoaBC	Pks13 thioesterase	MtTrpRS	LiHisRS
Cc1ccc(C(=O)N2C[C@H]3CCC[C@@]3(COCc3cccnc3)C2)s1	2.96	-27.4	-0.09588	19.61
Cc1n[nH]c(C)c1C1CCCN1C(=O)NCC(=O)Nc1ccccc1 (centres undefined)	0.1266	3.468	-0.6798	15.66
CCn1nc(C)c(CNCCn2cc(C)cn2)c1C	0.3764	-2.742	-2.287	6.78
CCOc1ccc(C(=O)CCC(=O)NCc2csc(N)n2)cc1C	1.583	-10.45	2.434	9.677
CCC(CO)N(Cc1ccsc1)Cc1cccc(O)c1 (centres undefined)	4.132	-23.51	-2.034	4
Oc1ccc(N2CCN(Cc3ccc(F)cc3Br)CC2)cc1	0.2481	-3.787	3.997	17.02
Cc1cc(C)c(CNC(=O)NCC2CCCN2C)c(=O)[nH]1 (centres undefined)	-5.585	-4.466	-5.503	10.4
CC(C)c1nccn1C1CCCN(C(=O)c2ccc3nncn3c2)C1 (centres undefined)	-8.903	-14.28	17.23	13.91
Cn1cccc1C1CCCN1C(=O)NCCCn1cccn1 (centres undefined)	-1.339	-6.091	0.8881	4.854
COc1ccc(-c2cc(C(=O)Nc3nc[nH]n3)[nH]n2)cc1	0.7264	-15.37	1.834	6.522
COCCN1CCc2cc(C(=O)O)c(-c3ccoc3)nc2CC1	4.315	-13.49	-2.058	0
Cc1ccc(N2CCCC(N(C)Cc3cc(C)no3)C2)nn1 (centres undefined)	-3.125	-7.87	-3.73	16.5
CN1[C@@H](C(=O)NCC2CC2)C[C@@H]2CN(Cc3ccoc3)C[C@@H]21	2.353	-	7.463	4.587
CN(CCc1ccccn1)C(=O)Nc1cc(C(F)(F)F)c[nH]c1=O	14.67	-9.888	10.66	35.62
CN1CC2(CCN(CC3CC3)CC2)COc2ccccc2S1(=O)=O	0.7407	-21.51	2.45	13.89
COc1ccc(C(=O)NCCCNc2ncccn2)cc1F	2.091	-13.11	1.632	11.29
CC1COCCN1C(=O)NCCCn1ccnc1 (centres undefined)	7.445	-40.99	-3.818	20.51
O=S(=O)(NCc1ccc(S(=O)(=O)N2CCCC2)s1)c1ccc(Cl)cc1	-0.2525	4.473	0.9104	-89.47
CN(C)C(=O)CN1CCO[C@H]2CN(c3ccccn3)C[C@H]21	2.664	-3.708	-3.843	8
COc1c(CNCc2cccc(C(=O)N(C)C)c2)c(C)nn1C	-6.702	-19.67	5.963	11.97
Cc1cc(C)n(CC2CCCN2CCC(=O)Nc2cc(C)on2)n1 (centres undefined)	10.56	-7.793	-2.792	12.28
Cc1ccnc(CC(C)N(C)Cc2ccc3c(c2)CCO3)c1 (centres undefined)	1.099	-10.92	-1.786	20
COc1cccc(CN2CCCC2c2c(C)nn(C)c2C)c1 (centres undefined)	-6.427	-22.74	-2.124	-30.34
CCCC1c2cccn2CCN1S(=O)(=O)N1CCOCC1 (centres undefined)	-4.439	11.84	-6.069	12.68
CN(CCNC(=O)NCc1ccncc1)C1CCCC1	2.966	0.5333	-1.174	-66.67
Cc1nc(CN2C(=O)CC[C@@H]3[C@H]2CCN3C(=O)c2ccccn2)cs1	1.269	-8.184	-9.959	14.71
O=C(c1cn(CC(=O)N2CCCCC2)c2ccccc12)C1CC1	3.417	-36.5	14.51	8.696
Cc1ccc(S(=O)(=O)N2CCOc3ccccc32)cc1C(N)=O	-1.554	-26.7	-2.153	-4.255
CN(C)S(=O)(=O)N1C[C@@H]2COC[C@]2(COc2ccccn2)C1	2.836	-15.74	-3.635	0
CCN(C)c1ncnc2c1CCN(C(=O)NCc1cccnc1)CC2	1.525	18.71	15.27	10.53
Cn1cc(-c2nc(CN3CCc4c(ncn4C)C3)cs2)cn1	9.211	-36.88	24.87	12.04
Nc1nc2c(c(NCc3nccs3)n1)CCN(CC1CCCC1)CC2	12.92	-9.757	1.683	30.12
CC(C)(C)C(=O)NCCc1cc(N2CCOCC2)nc(NC2CC2)n1	-7.99	1.669	0.3264	11.19
O=C(CCS(=O)(=O)C1CCCC1)NCCc1cccc(O)c1	6.409	-13.76	-4.224	12.9
O=C(N[C@@H]1CCNC[C@H]1O)c1ccc(F)c(F)c1	13.68	13.59	-0.1649	13.21
COC(=O)N1CCC(CNC(=O)C2CC2)CC1	3.181	-0.8712	4.9	19.51
Cc1cn(-c2ccccc2)nc1NS(=O)(=O)c1cc(C(=O)O)sc1C	4.177	-7.556	-0.4079	15.66
CCc1ccc(CN2CCN(c3ccc(C(N)=O)cn3)CC2)nc1	4.545	-57.74	-3.191	13.33
CCOCC1CN(Cc2ccoc2)Cc2cn(CC3CC3)nc21 (centres undefined)	5.291 & 20.57	-28.27	1.984	18.42
CC(CNC(=O)c1c[nH]nn1)Oc1cccc(Br)c1 (centres undefined)	1.467	-80.11	0.2349	6.452
CCN1CCC(CNC(=O)Nc2cnn(CC(N)=O)c2)C1 (centres undefined)	10.77	-8.006	-5.512	11.43
O=C(CCN1C(=O)CCC1=O)Nc1ccc(Oc2ccc(Cl)cc2)nc1	-0.369	-	-2.484	-8.065
CC(CC#N)N(C)Cc1ccccc1Cl (centres undefined)	2.991	-32.15	0.07137	-3.419
CNC(=O)c1nc2c(s1)CCN(C(=O)c1ccc(OC)cc1)CC2	2.932	-16.79	-0.9764	11.43
CC(C)CN(Cc1ccc(O)c(C(=O)O)c1)Cc1ccccn1	1.008	-1.211	-4.238	3.03
Cn1ncc(N2CCC(CNC3CC(c4ccccc4)C3)CC2)cc1=O (centres undefined)	7.253	-33.8	-3.804	8.571
N#Cc1cccc(C(=O)N2CC[C@H]3[C@H]2CCN3CC2CC2)c1	-2.96	-50	12.65	-5.769
Cc1ccc(N2CCCC(NCc3ccncc3)C2)nn1 (centres undefined)	9.399	-6.158	-3.801	10.81
CN1[C@H](CN2CCCC2)C[C@@H]2CN(C(=O)Cc3ccsc3)CC[C@@H]21	3.765	-20.4	-5.307	19.27
Cc1ccc(C)c(C(O)CN(C)Cc2nnc3ccccn23)c1 (centres undefined)	-11.29	-24.03	-3.846	21.05
CCc1nc(CN(C)C2CCN(CC(=O)N3CCOCC3)C2)no1 (centres undefined)	6.003	-10.06	4.182	9.821
CC(=O)N1CCO[C@@H]2CN(S(=O)(=O)c3ccccc3F)C[C@@H]2C1	-1.25	-35.82	-0.7757	17.95
CCOCCCNC(=O)CCSCc1csc(C)n1	-4.091	-14.08	-3.271	2.74

The last 6 entries again:

Compound	CoaBC	Pks13 thioesterase	MtTrpRS	LiHisRS
Cc1ccc(N2CCCC(NCc3ccncc3)C2)nn1 (centres undefined)	9.399	-6.158	-3.801	10.81
CN1[C@H](CN2CCCC2)C[C@@H]2CN(C(=O)Cc3ccsc3)CC[C@@H]21	3.765	-20.4	-5.307	19.27
Cc1ccc(C)c(C(O)CN(C)Cc2nnc3ccccn23)c1 (centres undefined)	-11.29	-24.03	-3.846	21.05
CCc1nc(CN(C)C2CCN(CC(=O)N3CCOCC3)C2)no1 (centres undefined)	6.003	-10.06	4.182	9.821
CC(=O)N1CCO[C@@H]2CN(S(=O)(=O)c3ccccc3F)C[C@@H]2C1	-1.25	-35.82	-0.7757	17.95
CCOCCCNC(=O)CCSCc1csc(C)n1	-4.091	-14.08	-3.271	2.74